Measured values reported in patent US20070099970A1, “Immunomodulatory compounds that target and inhibit the pY'binding site of tyrosene kinase p56 LCK SH2 domain” (priority 2005, published 2007).
Some of these results come from one statement about several compounds together.

By UniProt entry, the sequences of proteins in these tests, tags left out. Residues count along the entry.
UniProt P06239, 127-224 limits assumed: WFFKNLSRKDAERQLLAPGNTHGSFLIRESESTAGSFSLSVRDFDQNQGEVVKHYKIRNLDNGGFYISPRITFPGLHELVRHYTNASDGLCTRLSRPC

Target: T1, recombinant GST Lck SH2 domain fusion protein (Homo sapiens, UniProt P06239)
T1 construct: recombinant GST Lck SH2 domain fusion protein; made in house
Test: solid phase EIA inhibition assay: binding of GST Lck SH2 domain to CD3 ζ chain ITAM 2 phosphopeptide
Conditions: assay example 1, compounds 276-0 to 276-20 placed into groups A and B
Method: Compounds of the invention were obtained from commercial sources and were tested using a high-throughput Enzyme Immunoassay (EIA) developed to rapidly quantify inhibition.
Biological activities were measured using said EIA assay using 96 well medium binding EIA plates (Costar). Wells were coated with 100 μl of human CD3 ζ chain ITAM 2 phosphopeptide conjugated to BSA (˜10 pmole peptide equivalent) in PBS overnight at 4° C. and blocked with 300 μl of PBS containing 5% (wt/vol) powdered skim milk for 1 h at 37° C. After washing with PBS containing 1% Tween 20 (PBST), 3 times, 100 μl of precalibrated bacterial lysate containing recombinant GST Lck SH2 domain fusion protein was added in the presence or absence of test compounds and incubated for 1 h at room temperature. After 3 extensive washings with PBST, 100 μl of PBS containing HRP-conjugated rabbit anti-GST antibody was added and incubated for 1 h. After extensive washing with PBST, 100 μl of TMB substrate was added and absorbance at 620 nm was measured using a multiwell EIA plate reader (Anthos HTIII). The percent inhibition (% inhibition) was calculated based on the optical density (OD) using the formula: % inhibition=100−(ΔOD of test well/ΔOD of positive wells)×100, where ΔOD was calculated by subtracting background OD (average OD of negative wells) from the test as well as positive control wells. […]

Compound | inhibitory activity group (% inhibition)
COC(=O)c1ccc(-c2ccc(/C=C3\SC(=O)N(CC(=O)Nc4ccc(C)cc4)C3=O)o2)c(C)c1 [276-8] | B (less that 60% inhibitory activity)
COC(=O)c1ccc(-c2ccc(/C=C3\SC(=O)N(CC(=O)Nc4ccc(C)cc4)C3=O)o2)cc1 [276-5] | B (less that 60% inhibitory activity)
